Experimental data: PubChem BioAssay AID1224830 (NIAID, 2016)
The deposit covers about 18,000 reagents; this is a random part of them. About 2,900 of them (16%) count as active. 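Calls are made per well; low scores hint the gene aids the LPS response, high scores that it dampens it.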 Repeated entries: four replicate wells of each siRNA pool.

- Test: 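Genes whose knock-down alters the TNF-alpha reporter response to LPS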 (primary screen)
- Cell system: human THP-1 monocytic leukaemia cells, TNF dual-luciferase reporter clone, PMA-differentiated to macrophage-like cells
- Reagents: siRNA pool against human genes, 50 nM
- Timing: LPS for 4 h, given about 3 days after siRNA transfection
- Treatment: bacterial LPS (TLR4 ligand), 10 ng/ml
- Measured: 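TNF firefly reporter luminescence divided by renilla, normalised to the plate median, then turned into a robust z-score for each replicate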
- Direction: TNF reporter robust z-score: higher = stronger TNF reporter response to LPS
- Active means: 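a well is active when its z-score exceeds 2.8 or falls below -1.5; control wells carry no call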

How did the screen score VWA7 (von Willebrand factor A domain containing 7)?
TNF reporter robust z-score: -1.37; Call: inactive

With VWA7 (von Willebrand factor A domain containing 7), what was measured?
TNF reporter robust z-score: -1.04; Call: inactive

For VWA7 (von Willebrand factor A domain containing 7), what does the deposit list?
TNF reporter robust z-score: -0.89; Call: inactive

What is on record for VWA7 (von Willebrand factor A domain containing 7)?
TNF reporter robust z-score: -1; Call: inactive

With LHFPL4 (LHFPL tetraspan subfamily member 4), how do the results read?
TNF reporter robust z-score: -1.45; Call: inactive

Which result is listed for LHFPL4 (LHFPL tetraspan subfamily member 4)?
TNF reporter robust z-score: -0.91; Call: inactive

What did the screen give for LHFPL4 (LHFPL tetraspan subfamily member 4)?
TNF reporter robust z-score: -1.35; Call: inactive

3 entries already listed, sorted by “TNF reporter robust z-score”, lowest first.
VWA7 (von Willebrand factor A domain containing 7) → TNF reporter robust z-score: -1.04; Call: inactive
VWA7 (von Willebrand factor A domain containing 7) → TNF reporter robust z-score: -1; Call: inactive
VWA7 (von Willebrand factor A domain containing 7) → TNF reporter robust z-score: -0.89; Call: inactive

Continued:
With SEMA3A (semaphorin 3A), what does the deposit list?
TNF reporter robust z-score: 0.58; Call: inactive

With SEMA3A (semaphorin 3A), how do the results read?
TNF reporter robust z-score: 1.48; Call: inactive

For SEMA3A (semaphorin 3A), how do the results read?
TNF reporter robust z-score: 0.01; Call: inactive

What is on record for SEMA3A (semaphorin 3A)?
TNF reporter robust z-score: 0.1; Call: inactive

With TMEM245 (transmembrane protein 245), how do the results read?
TNF reporter robust z-score: -0.47; Call: inactive

Which result is listed for TMEM245 (transmembrane protein 245)?
TNF reporter robust z-score: 0.18; Call: inactive

Which result is listed for TMEM245 (transmembrane protein 245)?
TNF reporter robust z-score: 0.04; Call: inactive

How did the screen score TMEM245 (transmembrane protein 245)?
TNF reporter robust z-score: 0.85; Call: inactive

For ST3GAL6 (ST3 beta-galactoside alpha-2,3-sialyltransferase 6), what does the deposit list?
TNF reporter robust z-score: -0.64; Call: inactive

Which result is listed for ST3GAL6 (ST3 beta-galactoside alpha-2,3-sialyltransferase 6)?
TNF reporter robust z-score: 1.81; Call: inactive

With ST3GAL6 (ST3 beta-galactoside alpha-2,3-sialyltransferase 6), how do the results read?
TNF reporter robust z-score: -0.11; Call: inactive

With ST3GAL6 (ST3 beta-galactoside alpha-2,3-sialyltransferase 6), how do the results read?
TNF reporter robust z-score: -0.02; Call: inactive
